These are yes or no findings as the source states them, for the method shown. Some results given as binding are weak or reduced against the parent protein; the word gives no strength.
Assays:
[1] = molecular target: human N-cadherin expressed on CHO cells (human) (UniProt P19022); experiment: association of protein-coated latex beads with cells (differential fluorescence assay); 3 x 10^5 fluorescent latex beads coated with rAls1-N, rAls3-N or biotinylated BSA incubated for 45 min with CHO cells expressing human N-cadherin or E-cadherin (or control CHO cells) on coverslips; cell-associated (endocytosed plus adherent) beads counted, as a percentage of BSA-coated beads; only the binder purified
[2] = molecular target: human E-cadherin expressed on CHO cells (human) (UniProt P12830); experiment: as above

Protein sequences, listed by entry. Tags and fused reporters are not part of them. Residues count along the entry.
UniProt P19022, residues 160-906: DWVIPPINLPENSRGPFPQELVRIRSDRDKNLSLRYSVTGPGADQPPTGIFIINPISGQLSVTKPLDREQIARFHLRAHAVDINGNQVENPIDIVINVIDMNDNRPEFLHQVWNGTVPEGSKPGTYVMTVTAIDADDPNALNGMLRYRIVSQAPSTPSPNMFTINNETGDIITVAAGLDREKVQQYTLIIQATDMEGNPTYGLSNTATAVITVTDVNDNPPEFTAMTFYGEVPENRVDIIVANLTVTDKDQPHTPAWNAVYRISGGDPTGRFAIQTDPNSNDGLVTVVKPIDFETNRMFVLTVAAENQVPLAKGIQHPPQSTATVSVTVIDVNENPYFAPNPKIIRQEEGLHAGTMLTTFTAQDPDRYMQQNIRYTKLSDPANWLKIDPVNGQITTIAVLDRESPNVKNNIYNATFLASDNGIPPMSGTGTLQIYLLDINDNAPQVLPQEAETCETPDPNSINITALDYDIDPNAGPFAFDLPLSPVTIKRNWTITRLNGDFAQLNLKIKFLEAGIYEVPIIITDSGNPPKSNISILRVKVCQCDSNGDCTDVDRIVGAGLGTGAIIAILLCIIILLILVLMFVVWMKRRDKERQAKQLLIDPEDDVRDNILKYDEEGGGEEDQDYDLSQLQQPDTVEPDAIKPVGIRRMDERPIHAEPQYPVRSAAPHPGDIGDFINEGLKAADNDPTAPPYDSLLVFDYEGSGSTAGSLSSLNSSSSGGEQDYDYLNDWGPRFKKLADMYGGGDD
UniProt P12830, residues 155-882: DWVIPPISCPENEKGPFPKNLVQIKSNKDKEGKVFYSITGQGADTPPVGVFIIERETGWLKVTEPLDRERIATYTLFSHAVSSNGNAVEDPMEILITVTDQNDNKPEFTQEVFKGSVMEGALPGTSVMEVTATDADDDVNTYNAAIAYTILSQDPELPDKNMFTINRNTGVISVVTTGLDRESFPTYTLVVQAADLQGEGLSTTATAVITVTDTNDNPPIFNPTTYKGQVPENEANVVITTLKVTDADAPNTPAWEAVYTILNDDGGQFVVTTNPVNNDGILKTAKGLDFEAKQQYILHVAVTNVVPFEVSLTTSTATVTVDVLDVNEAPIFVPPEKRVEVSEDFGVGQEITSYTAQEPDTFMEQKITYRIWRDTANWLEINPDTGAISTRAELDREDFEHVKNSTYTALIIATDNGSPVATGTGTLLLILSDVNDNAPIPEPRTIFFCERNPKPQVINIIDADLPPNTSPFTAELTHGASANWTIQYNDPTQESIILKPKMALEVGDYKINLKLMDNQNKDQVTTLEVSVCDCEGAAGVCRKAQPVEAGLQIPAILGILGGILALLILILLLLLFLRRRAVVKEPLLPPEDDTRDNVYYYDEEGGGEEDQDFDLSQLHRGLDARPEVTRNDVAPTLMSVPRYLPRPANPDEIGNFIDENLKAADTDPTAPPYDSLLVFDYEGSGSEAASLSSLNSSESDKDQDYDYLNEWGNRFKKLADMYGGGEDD
UniProt Q5A8T4, residues 17-432: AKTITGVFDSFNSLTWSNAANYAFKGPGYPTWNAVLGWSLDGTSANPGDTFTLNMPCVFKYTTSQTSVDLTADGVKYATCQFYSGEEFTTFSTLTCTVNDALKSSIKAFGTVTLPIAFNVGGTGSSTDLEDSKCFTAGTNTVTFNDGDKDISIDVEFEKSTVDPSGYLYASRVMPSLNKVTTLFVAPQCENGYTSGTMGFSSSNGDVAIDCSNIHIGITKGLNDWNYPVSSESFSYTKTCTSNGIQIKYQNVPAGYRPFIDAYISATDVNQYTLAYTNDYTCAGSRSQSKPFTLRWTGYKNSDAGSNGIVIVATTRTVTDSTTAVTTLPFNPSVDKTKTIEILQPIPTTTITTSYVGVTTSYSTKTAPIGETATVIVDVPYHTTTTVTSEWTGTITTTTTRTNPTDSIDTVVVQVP
UniProt Q59L12, residues 17-432: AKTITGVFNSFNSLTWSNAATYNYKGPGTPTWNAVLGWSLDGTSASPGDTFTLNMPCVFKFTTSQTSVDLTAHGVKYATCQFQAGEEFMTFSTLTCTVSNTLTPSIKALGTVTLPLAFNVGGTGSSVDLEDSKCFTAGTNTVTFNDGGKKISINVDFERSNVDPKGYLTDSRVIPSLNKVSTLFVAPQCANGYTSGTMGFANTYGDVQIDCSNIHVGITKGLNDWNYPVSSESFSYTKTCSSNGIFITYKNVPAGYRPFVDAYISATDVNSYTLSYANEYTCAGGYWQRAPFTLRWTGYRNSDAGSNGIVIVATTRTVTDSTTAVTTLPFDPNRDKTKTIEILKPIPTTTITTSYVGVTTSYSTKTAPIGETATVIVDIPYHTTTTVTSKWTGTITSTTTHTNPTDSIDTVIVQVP

Substance | binding [1] | binding [2]
recombinant N-terminal portion of Als1 (from UniProt Q5A8T4 17-432) (domain or fragment) | binds weakly | 
recombinant N-terminal portion of Als3 (from UniProt Q59L12 17-432) (domain or fragment) | binds weakly | binds weakly

From publication PMC1802757
